Measured values reported in US20190367612A1.
No constants are given. Whether binding was seen depends on the method and setting. Some entries that bind do so weakly or less than the wild type.

Chains of the proteins cited; added tags and fusions are not shown. Lines headed by an entry give the natural chain unless they say otherwise; changes in a name come on top. Residues count along the entry.
UniProt P07766: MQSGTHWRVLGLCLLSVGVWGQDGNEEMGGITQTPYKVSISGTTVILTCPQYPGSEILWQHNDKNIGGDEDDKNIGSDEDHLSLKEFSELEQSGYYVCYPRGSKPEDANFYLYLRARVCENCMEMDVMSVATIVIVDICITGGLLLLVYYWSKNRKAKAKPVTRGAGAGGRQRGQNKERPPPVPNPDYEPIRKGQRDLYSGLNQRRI
UniProt Q95LI5, residues 22-198: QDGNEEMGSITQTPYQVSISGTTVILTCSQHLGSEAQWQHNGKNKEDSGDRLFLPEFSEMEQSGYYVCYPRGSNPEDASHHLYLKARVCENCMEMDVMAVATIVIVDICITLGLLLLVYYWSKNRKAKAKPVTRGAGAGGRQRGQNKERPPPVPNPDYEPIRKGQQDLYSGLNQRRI

B1: anti-GPRC5D-anti-CD3 bispecific molecule C3022-C3E7034 (bispecific antibody)
scFv: GQVQLVQSGAEVKKPGASVKVSCKASGYTFTGYYMHWVRQAPGQGLEWMGRINPNSGGTNYAQKFQGRVTMTRDTSISTAYMELSGLRSDDTAVYYCASGSVRHPWGQGTLVTVSSGGGGSGGGGSGGGGSQPVLTQPPSASGTPGQRVTISCSGSRSNIGGNIVSWYQQFPGTAPRLLTYADNQRPSGVPDRFSGSKSGTSASLAISGLQSEDEADYYCAAWDDSLNGVVFGGGTKLTVLGGGGSEVQLVESGGGLVQPGGSLRLSCAASGVTFNYYGMSWIRQAPGKGLEWVASITNSGGRIYYPDSVKGRFTISRENTQKTLYLQMNSLRAEDTAVYYCTLDGRDGWVAYWGQGTLVTVSSGGGGSGGGGSGGGGSNFMLTQPHSVSESPGKTVTISCKRNTGNIGSNYVNWYQQHEGSSPTTIIYRDDKRPDGVSDRFSGSIDRSSKSASLTISNLKTEDEADYFCQSYSSGFIFGGGTKLTVLGAAAGAGGDYKDDDDKGAAAHHHHHH
B2: anti-GPRC5D-anti-CD3 bispecific molecule C3022-C3E7035 (bispecific antibody)
scFv: GQVQLVQSGAEVKKPGASVKVSCKASGYTFTGYYMHWVRQAPGQGLEWMGRINPNSGGTNYAQKFQGRVTMTRDTSISTAYMELSGLRSDDTAVYYCASGSVRHPWGQGTLVTVSSGGGGSGGGGSGGGGSQPVLTQPPSASGTPGQRVTISCSGSRSNIGGNIVSWYQQFPGTAPRLLTYADNQRPSGVPDRFSGSKSGTSASLAISGLQSEDEADYYCAAWDDSLNGVVFGGGTKLTVLGGGGSEVQLVESGGGLVQPGGSLRLSCAASGVTFNYYGMSWIRQAPGKGLEWVASITNSGGRIYYPDSVKGRFTISRENTQKTLYLQMNSLRAEDTAVYYCTLDGRDGWVAYWGQGTLVTVSSGGGGSGGGGSGGGGSMAQAVLTQPSSVSGVPGQRVTISCKRNTGNIGSNYVNWYQQLPGTAPKLLIYRDDKRPSGVPDRFSGSKSGTSASLAITGFQAEDEADYYCQSYSSGFIFGGGTKLTVLGAAAGAGGDYKDDDDKGAAAHHHHHH
B3: anti-GPRC5D-anti-CD3 bispecific molecule C3048-C3E7035 (bispecific antibody)
scFv: GQVQLVQSGAEVKKPGSSVKVSCKASGGTFSRYAISWVRQAPGQGLEWMGGIIPIFGTANYAQKFQGRVTITADQSTRTAYMDLGRLRSEDTAVYYCALEGFRDSLKRNPFDIWGQGTMVTVSSGGGGSGGGGSGGGGSQSVVTQPPSVSAAPGQKVTISCSGGTTNIGSNYVSWYQQLPGTAPKFLMYENNKRPSGIPDRFSGSKSGTSATLAITGLQTGDEATYYCSTWDSSLNTGLFGGGTKLTVLGGGGSEVQLVESGGGLVQPGGSLRLSCAASGVTFNYYGMSWIRQAPGKGLEWVASITNSGGRIYYPDSVKGRFTISRENTQKTLYLQMNSLRAEDTAVYYCTLDGRDGWVAYWGQGTLVTVSSGGGGSGGGGSGGGGSMAQAVLTQPSSVSGVPGQRVTISCKRNTGNIGSNYVNWYQQLPGTAPKLLIYRDDKRPSGVPDRFSGSKSGTSASLAITGFQAEDEADYYCQSYSSGFIFGGGTKLTVLGAAAGAGGDYKDDDDKGAAAHHHHHH
B4: anti-GPRC5D-anti-CD3 bispecific molecule C3048-C3E7036 (bispecific antibody)
scFv: GQVQLVQSGAEVKKPGSSVKVSCKASGGTFSRYAISWVRQAPGQGLEWMGGIIPIFGTANYAQKFQGRVTITADQSTRTAYMDLGRLRSEDTAVYYCALEGFRDSLKRNPFDIWGQGTMVTVSSGGGGSGGGGSGGGGSQSVVTQPPSVSAAPGQKVTISCSGGTTNIGSNYVSWYQQLPGTAPKFLMYENNKRPSGIPDRFSGSKSGTSATLAITGLQTGDEATYYCSTWDSSLNTGLFGGGTKLTVLGGGGSEVQLVESGGGLVQPGGSLRLSCAASGVTFNYYGMSWIRQAPGKGLEWVASITNSGGRIYYPDSVKGRFTISRENTQKTLYLQMNSLRAEDTAVYYCTLDGRDGWVAYWGQGTLVTVSSGGGGSGGGGSGGGGSNFMLTQPSSVSGVPGQRVTISCTGNTGNIGSNYVNWYQQLPGTAPKLLIYRDDKRPSGVPDRFSGSKSGTSASLAITGFQAEDEADYYCQSYSSGFIFGGGTKLTVLGAAAGAGGDYKDDDDKGAAAHHHHHH
B5: anti-GPRC5D-anti-CD3 bispecific molecule C3022-C3E7036 (bispecific antibody)
scFv: GQVQLVQSGAEVKKPGASVKVSCKASGYTFTGYYMHWVRQAPGQGLEWMGRINPNSGGTNYAQKFQGRVTMTRDTSISTAYMELSGLRSDDTAVYYCASGSVRHPWGQGTLVTVSSGGGGSGGGGSGGGGSQPVLTQPPSASGTPGQRVTISCSGSRSNIGGNIVSWYQQFPGTAPRLLTYADNQRPSGVPDRFSGSKSGTSASLAISGLQSEDEADYYCAAWDDSLNGVVFGGGTKLTVLGGGGSEVQLVESGGGLVQPGGSLRLSCAASGVTFNYYGMSWIRQAPGKGLEWVASITNSGGRIYYPDSVKGRFTISRENTQKTLYLQMNSLRAEDTAVYYCTLDGRDGWVAYWGQGTLVTVSSGGGGSGGGGSGGGGSNFMLTQPSSVSGVPGQRVTISCTGNTGNIGSNYVNWYQQLPGTAPKLLIYRDDKRPSGVPDRFSGSKSGTSASLAITGFQAEDEADYYCQSYSSGFIFGGGTKLTVLGAAAGAGGDYKDDDDKGAAAHHHHHH
B6: anti-GPRC5D-anti-CD3 bispecific molecule C3048-C3E7034 (bispecific antibody)
scFv: GQVQLVQSGAEVKKPGSSVKVSCKASGGTFSRYAISWVRQAPGQGLEWMGGIIPIFGTANYAQKFQGRVTITADQSTRTAYMDLGRLRSEDTAVYYCALEGFRDSLKRNPFDIWGQGTMVTVSSGGGGSGGGGSGGGGSQSVVTQPPSVSAAPGQKVTISCSGGTTNIGSNYVSWYQQLPGTAPKFLMYENNKRPSGIPDRFSGSKSGTSATLAITGLQTGDEATYYCSTWDSSLNTGLFGGGTKLTVLGGGGSEVQLVESGGGLVQPGGSLRLSCAASGVTFNYYGMSWIRQAPGKGLEWVASITNSGGRIYYPDSVKGRFTISRENTQKTLYLQMNSLRAEDTAVYYCTLDGRDGWVAYWGQGTLVTVSSGGGGSGGGGSGGGGSNFMLTQPHSVSESPGKTVTISCKRNTGNIGSNYVNWYQQHEGSSPTTIIYRDDKRPDGVSDRFSGSIDRSSKSASLTISNLKTEDEADYFCQSYSSGFIFGGGTKLTVLGAAAGAGGDYKDDDDKGAAAHHHHHH

The binders below were run against human CD3 (human) (UniProt P07766) (assay: flow cytometry, human PBMC).

binding, binds:
B1
B2
B3
B4
B5
B6

The binders below were run against human CD3 (human) (UniProt P07766) (assay: flow cytometry on human PBMC (dead and CD19-positive cells excluded), Penta-His Alexa Fluor 488 detection, rMFI = MFI minus sample without antibody).

binding, binds:
B1
B2
B3
B4
B5
B6

These binders were tested against cynomolgus monkey CD3 (cynomolgus monkey) (UniProt Q95LI5) (assay: flow cytometry on cynomolgus monkey PBMC, Penta-His Alexa Fluor 488 detection, rMFI = MFI minus sample without antibody).

binding, binds:
B1
B2
B3
B4
B5
B6

These binders were tested against cynomolgus monkey CD3 (cynomolgus monkey) (UniProt Q95LI5) (assay: flow cytometry, cynomolgus monkey PBMC).

binding, binds:
B1
B2
B3
B4
B5
B6
